Measured values as given in PMC12329599, “Acetylation of microtubule-binding PinX1 orchestrates ribosome biogenesis to nutrient starvation via the RNA polymerase I preinitiation complex” (The Journal of Biological Chemistry, 2025).
Results are given in words; binding and its absence hold for the method and conditions named. For some of these results: Binding seen in cells or lysates may run through a third protein. Some binding calls cover weakened binding; strength is not graded here. Sequences can lack the tags named with a protein. Blank lines part the entries; values can stand above or below the molecule they belong to.

Sequences of proteins named here, by UniProt entry; tags and fusion partners are left off.
UniProt P06748: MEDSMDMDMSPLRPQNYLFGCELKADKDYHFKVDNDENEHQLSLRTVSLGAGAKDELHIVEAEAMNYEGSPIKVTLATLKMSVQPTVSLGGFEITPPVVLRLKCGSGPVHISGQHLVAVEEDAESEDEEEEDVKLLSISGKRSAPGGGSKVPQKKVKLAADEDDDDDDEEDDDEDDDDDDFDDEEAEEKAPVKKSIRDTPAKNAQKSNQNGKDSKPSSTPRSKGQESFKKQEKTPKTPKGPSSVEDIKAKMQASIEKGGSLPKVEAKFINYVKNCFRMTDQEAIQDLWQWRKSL
UniProt O15446: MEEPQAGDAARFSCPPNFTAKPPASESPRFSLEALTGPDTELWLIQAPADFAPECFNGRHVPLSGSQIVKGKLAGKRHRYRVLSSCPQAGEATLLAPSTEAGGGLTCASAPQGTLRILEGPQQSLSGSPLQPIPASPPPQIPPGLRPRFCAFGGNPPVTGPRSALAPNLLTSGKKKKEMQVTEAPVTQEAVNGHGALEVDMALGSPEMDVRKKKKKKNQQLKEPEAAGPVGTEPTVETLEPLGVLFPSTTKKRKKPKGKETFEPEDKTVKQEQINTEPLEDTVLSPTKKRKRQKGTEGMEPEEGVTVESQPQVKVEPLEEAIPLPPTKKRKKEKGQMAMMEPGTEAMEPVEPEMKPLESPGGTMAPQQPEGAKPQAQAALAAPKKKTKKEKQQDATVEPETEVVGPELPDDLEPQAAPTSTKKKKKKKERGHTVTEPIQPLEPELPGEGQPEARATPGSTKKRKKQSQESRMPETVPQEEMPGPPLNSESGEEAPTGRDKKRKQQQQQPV
UniProt O15379: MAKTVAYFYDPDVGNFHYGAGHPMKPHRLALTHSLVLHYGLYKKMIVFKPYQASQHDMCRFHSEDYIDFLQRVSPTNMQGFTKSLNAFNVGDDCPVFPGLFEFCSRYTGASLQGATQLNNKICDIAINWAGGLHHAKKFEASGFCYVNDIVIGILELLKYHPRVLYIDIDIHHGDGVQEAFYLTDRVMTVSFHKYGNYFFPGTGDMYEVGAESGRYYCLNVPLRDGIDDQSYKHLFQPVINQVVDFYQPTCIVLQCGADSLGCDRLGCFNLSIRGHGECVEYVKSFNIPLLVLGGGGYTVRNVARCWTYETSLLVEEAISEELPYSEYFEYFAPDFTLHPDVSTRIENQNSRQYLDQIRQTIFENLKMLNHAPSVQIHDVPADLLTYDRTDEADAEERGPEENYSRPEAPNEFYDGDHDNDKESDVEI
UniProt Q92793: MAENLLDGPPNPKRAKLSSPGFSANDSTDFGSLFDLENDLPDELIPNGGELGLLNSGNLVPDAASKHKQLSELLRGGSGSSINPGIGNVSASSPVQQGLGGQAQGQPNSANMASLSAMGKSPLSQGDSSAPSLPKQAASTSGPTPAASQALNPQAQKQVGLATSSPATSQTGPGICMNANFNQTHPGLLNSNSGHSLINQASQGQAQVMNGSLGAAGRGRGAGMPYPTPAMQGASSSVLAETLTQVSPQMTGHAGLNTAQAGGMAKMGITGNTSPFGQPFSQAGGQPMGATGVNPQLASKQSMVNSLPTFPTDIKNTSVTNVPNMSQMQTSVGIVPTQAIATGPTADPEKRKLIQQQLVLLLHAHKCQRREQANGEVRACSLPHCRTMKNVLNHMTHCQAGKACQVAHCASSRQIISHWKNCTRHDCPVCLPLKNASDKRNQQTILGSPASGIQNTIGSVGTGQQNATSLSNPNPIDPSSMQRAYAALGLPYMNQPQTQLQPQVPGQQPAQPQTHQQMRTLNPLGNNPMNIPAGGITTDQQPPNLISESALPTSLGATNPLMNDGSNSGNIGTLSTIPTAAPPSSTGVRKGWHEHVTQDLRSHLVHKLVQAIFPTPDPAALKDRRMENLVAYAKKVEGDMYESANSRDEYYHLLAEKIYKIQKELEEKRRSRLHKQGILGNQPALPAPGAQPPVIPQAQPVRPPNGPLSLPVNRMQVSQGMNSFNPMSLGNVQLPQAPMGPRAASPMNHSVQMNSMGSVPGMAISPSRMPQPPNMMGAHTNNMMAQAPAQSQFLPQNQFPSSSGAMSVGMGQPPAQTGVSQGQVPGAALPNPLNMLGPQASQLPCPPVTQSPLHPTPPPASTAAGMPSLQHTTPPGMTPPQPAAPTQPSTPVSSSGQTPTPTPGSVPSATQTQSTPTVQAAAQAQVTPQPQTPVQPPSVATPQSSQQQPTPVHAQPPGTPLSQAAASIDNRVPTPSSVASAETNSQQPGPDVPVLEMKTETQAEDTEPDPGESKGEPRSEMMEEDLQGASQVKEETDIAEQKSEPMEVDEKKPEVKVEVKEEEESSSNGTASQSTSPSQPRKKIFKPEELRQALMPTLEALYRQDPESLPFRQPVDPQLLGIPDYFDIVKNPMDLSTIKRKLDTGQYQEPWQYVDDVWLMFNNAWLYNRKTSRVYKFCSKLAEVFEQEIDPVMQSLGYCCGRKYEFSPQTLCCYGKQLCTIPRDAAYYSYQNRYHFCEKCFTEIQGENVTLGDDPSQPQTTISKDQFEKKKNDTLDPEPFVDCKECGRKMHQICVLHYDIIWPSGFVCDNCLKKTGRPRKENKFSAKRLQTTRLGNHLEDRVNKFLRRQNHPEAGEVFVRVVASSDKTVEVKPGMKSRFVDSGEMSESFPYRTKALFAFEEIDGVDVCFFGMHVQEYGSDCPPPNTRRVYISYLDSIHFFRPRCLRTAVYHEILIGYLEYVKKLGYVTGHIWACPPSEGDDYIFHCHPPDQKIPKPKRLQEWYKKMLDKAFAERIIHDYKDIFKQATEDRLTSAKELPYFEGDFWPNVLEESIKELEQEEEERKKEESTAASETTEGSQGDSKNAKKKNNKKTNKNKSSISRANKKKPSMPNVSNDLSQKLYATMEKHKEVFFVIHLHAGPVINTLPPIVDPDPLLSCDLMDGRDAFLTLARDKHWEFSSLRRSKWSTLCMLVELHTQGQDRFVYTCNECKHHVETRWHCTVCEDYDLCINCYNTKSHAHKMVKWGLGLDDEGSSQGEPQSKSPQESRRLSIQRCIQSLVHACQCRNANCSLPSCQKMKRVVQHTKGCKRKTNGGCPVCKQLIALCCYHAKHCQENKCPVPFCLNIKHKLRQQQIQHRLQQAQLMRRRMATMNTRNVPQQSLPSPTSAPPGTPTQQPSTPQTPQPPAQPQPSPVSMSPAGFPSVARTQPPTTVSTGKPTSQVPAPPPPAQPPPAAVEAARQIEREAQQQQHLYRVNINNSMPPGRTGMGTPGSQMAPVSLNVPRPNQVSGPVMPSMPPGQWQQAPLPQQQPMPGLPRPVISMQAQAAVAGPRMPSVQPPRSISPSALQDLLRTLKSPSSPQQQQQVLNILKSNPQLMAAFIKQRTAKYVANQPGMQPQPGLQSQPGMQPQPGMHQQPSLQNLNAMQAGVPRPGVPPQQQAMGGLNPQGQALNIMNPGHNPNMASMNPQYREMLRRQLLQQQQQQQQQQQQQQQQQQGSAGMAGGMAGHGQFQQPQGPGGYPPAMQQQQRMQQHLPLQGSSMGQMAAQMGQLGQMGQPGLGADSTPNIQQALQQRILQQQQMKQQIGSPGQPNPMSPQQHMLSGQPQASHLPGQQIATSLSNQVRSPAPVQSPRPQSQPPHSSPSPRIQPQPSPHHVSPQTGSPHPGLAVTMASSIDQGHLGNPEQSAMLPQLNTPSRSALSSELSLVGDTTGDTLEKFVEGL

Columns and labels:
[1] = molecular target: T1, GFP-PinX1 wild type, expressed in HEK293T cells (human) (UniProt Q96BK5); assay: co-IP; HEK293T cells transfected with GFP-tagged PinX1; endogenous partners detected by Western blot; BC100 buffer
T1 sequence: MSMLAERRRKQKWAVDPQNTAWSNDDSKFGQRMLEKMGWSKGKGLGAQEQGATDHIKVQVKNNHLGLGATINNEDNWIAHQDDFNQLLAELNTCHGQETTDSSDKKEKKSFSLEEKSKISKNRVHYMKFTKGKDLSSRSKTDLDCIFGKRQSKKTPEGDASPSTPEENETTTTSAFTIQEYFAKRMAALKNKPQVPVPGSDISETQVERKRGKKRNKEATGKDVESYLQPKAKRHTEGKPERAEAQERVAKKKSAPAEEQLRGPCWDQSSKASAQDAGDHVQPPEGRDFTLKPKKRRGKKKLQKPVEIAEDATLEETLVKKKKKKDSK

[2] = molecular target: T2, PinX1-3×Flag wild type, expressed in HCT116 cells (human) (UniProt Q96BK5); assay: co-IP; HCT116 cells transfected with both partners, with or without EBSS treatment (time course); lysis in BC100 buffer (100 mM NaCl, 20 mM Tris-HCl pH 7.9, 20% glycerol, 0.2% NP-40), beads at 4 °C overnight, Western blot
T2 sequence: T1 sequence

[3] = molecular target: T3, PinX1-3×Flag wild type (PIN2/TRF1-interacting telomerase inhibitor 1), expressed in HEK293T cells (human) (UniProt Q96BK5); assay: co-IP; HEK293T cells transfected with both tagged partners; lysis in BC100 buffer, beads at 4 °C overnight, Western blot
T3 sequence: T1 sequence

[4] = molecular target: T4, GST-PinX1 full-length (human) (UniProt Q96BK5); assay: pull-down; GST-PinX1 proteins on glutathione beads incubated with purified Strep2- or HA-tagged proteins in BC200 buffer (200 mM NaCl, 20 mM Tris-HCl pH 7.9, 20% glycerol, 0.2% NP-40) at 4 °C overnight; washed with BC500, BC200 or BC100; Western blot; both purified
T4 sequence: T1 sequence

[5] = molecular target: T1, GFP-PinX1 wild type, expressed in HEK293T cells (human); assay: co-IP; HEK293T cells transfected with both tagged partners; lysis in BC100 buffer, beads at 4 °C overnight, Western blot

Molecule: NPM, endogenous in HEK293T cells (from UniProt P06748 1-294)
binding [1]: binds

Molecule: HA-POLR1G (RNA polymerase I subunit G), expressed in HCT116 cells (from UniProt O15446 1-510)
binding [2]: binds

Molecule: HA-HDAC3 (from UniProt O15379 1-428) (enzyme)
binding [3]: binds
binding [4]: binds

Molecule: HA-CBP, expressed in HCT116 cells (from UniProt Q92793 1-2442) (enzyme)
binding [2]: binds

B1: HA-HDAC10 (enzyme, UniProt Q969S8 1-669)
chain: MGTALVYHEDMTATRLLWDDPECEIERPERLTAALDRLRQRGLEQRCLRLSAREASEEELGLVHSPEYVSLVRETQVLGKEELQALSGQFDAIYFHPSTFHCARLAAGAGLQLVDAVLTGAVQNGLALVRPPGHHGQRAAANGFCVFNNVAIAAAHAKQKHGLHRILVVDWDVHHGQGIQYLFEDDPSVLYFSWHRYEHGRFWPFLRESDADAVGRGQGLGFTVNLPWNQVGMGNADYVAAFLHLLLPLAFEFDPELVLVSAGFDSAIGDPEGQMQATPECFAHLTQLLQVLAGGRVCAVLEGGYHLESLAESVCMTVQTLLGDPAPPLSGPMAPCQSALESIQSARAAQAPHWKSLQQQDVTAVPMSPSSHSPEGRPPPLLPGGPVCKAAASAPSSLLDQPCLCPAPSVRTAVALTTPDITLVLPPDVIQQEASALREETEAWARPHESLAREEALTALGKLLYLLDGMLDGQVNSGIAATPASAAAATLDVAVRRGLSHGAQRLLCVALGQLDRPPDLAHDGRSLWLNIRGKEAAALSMFHVSTPLPVMTGGFLSCILGLVLPLAYGFQPDLVLVALGPGHGLQGPHAALLAAMLRGLAGGRVLALLEENSTPQLAGILARVLNGEAPPSLGPSSVASPEDVQALMYLRGQLEPQWKMLQCHPHLVA
binding [3]: binds
binding [4]: binds

Continued, values first:

binding [5]: binds
binding [3]: binds
Molecule: HA-POLR1G (RNA polymerase I subunit G), expressed in HEK293T cells (from UniProt O15446 1-510)

binding [5]: binds
B2: HA-DDX21 (protein, UniProt Q9NR30 1-783)
chain: MPGKLRSDAGLESDTAMKKGETLRKQTEEKEKKEKPKSDKTEEIAEEEETVFPKAKQVKKKAEPSEVDMNSPKSKKAKKKEEPSQNDISPKTKSLRKKKEPIEKKVVSSKTKKVTKNEEPSEEEIDAPKPKKMKKEKEMNGETREKSPKLKNGFPHPEPDCNPSEAASEESNSEIEQEIPVEQKEGAFSNFPISEETIKLLKGRGVTFLFPIQAKTFHHVYSGKDLIAQARTGTGKTFSFAIPLIEKLHGELQDRKRGRAPQVLVLAPTRELANQVSKDFSDITKKLSVACFYGGTPYGGQFERMRNGIDILVGTPGRIKDHIQNGKLDLTKLKHVVLDEVDQMLDMGFADQVEEILSVAYKKDSEDNPQTLLFSATCPHWVFNVAKKYMKSTYEQVDLIGKKTQKTAITVEHLAIKCHWTQRAAVIGDVIRVYSGHQGRTIIFCETKKEAQELSQNSAIKQDAQSLHGDIPQKQREITLKGFRNGSFGVLVATNVAARGLDIPEVDLVIQSSPPKDVESYIHRSGRTGRAGRTGVCICFYQHKEEYQLVQVEQKAGIKFKRIGVPSATEIIKASSKDAIRLLDSVPPTAISHFKQSAEKLIEEKGAVEALAAALAHISGATSVDQRSLINSNVGFVTMILQCSIEMPNISYAWKELKEQLGEEIDSKVKGMVFLKGKLGVCFDVPTASVTEIQEKWHDSRRWQLSVATEQPELEGPREGYGGFRGQREGSRGFRGQRDGNRRFRGQREGSRGPRGQRSGGGNKSNRSQNKGQKRSFSKAFGQ
